# Results reported in US7198651B2, “Method of effecting a reversible color change of dyed hair” (Kao Corporation, priority 2003, dated 2007).
# Assay: Example II: dyeing of white goat hair, then colour change with acidic gel (pH 3) and alkaline cream
# Conditions: for Delta E Colour Change: vs. original dyed colour
# Method: The dye mixture can be applied to undamaged white goat hair at 50° C. for 15 min. or 30° C. for 30 min. Approximately 1 g of formulation A is used per gram of hair. After the completion of the dyeing time, the tresses may be rinsed with water, shampoo washed and then dried. The colour of the tresses can then be recorded. […] All of the dyes have the formula I, but only dyes within a certain pKa range are capable of reversible colour change of hair in which the hair changes to a second colour by treatment with the acidic formulation defined in Table 2. The dyeing solutions each had the following compositions: [table] The dye solution is applied in a 1:1 weight ratio to untreated white goat hair at 30° C. for 20 min. After this time, the tresses are shampoo rinsed, dried and the colour measured. The tresses were then run through the following protocol: • a. Acidic Gel (see Table 2a below) was applied in a ratio of 1 g per 1 g of hair tress for 1 min. • b. The hair tress was rinsed with water and dried, and the colour and delta E vs. the original dyed colour was then measured. • c. An alkaline cream (see Table 2b below) was applied in a ratio of 1 g per 1 g of the hair tress for 1 min. • d. The hair tress was rinsed and dried, and the colour and delta E vs. the original dyed colour was then measured. [table] [table]
# [1] = Acid Solution (acidic gel pH 3, 1 min)
# [2] = Alkali Solution (alkaline cream, 1 min) after acid
# [3] = Dyed, 0.2% dye, pH 10, 30° C. 20 min
Compound,L [1],a [1],b [1],Delta E Colour Change [1],L [2],a [2],b [2],Delta E Colour Change [2],L [3],a [3],b [3]
CC(=O)Nc1cc(/N=N/c2nncs2)ccc1O [Dye 1],51,56,32,14,47,60,21,1,46,60,20
O=C(Nc1cc(/N=N/c2nc(-c3ccccc3)no2)c2ccccc2c1O)c1ccncc1 [Dye 2],50,35,10,26,38,49,−7,2,36,50,−6
CS(=O)(=O)c1ccc(/N=N/c2ccc(O)c3ccccc23)c(C#N)c1 [Dye 3],29,11,15,34,20,12,−17,1,19,16,−17
CC(=O)Nc1cc(/N=N/c2ccc(S(C)(=O)=O)cc2C#N)c2ccccc2c1O [Dye 4],68,−1,23,36,59,−9,−9,2,57,−9,−10
CSc1nnc(/N=N/c2ccc(O)c(NC(C)=O)c2)s1 [Dye 5],46,45,20,23,37,52,−1,1,36,52,0
CC(=O)Nc1cc(/N=N/c2nc3ccccc3s2)ccc1O [Dye 6],53,21,20,24,44,32,−3,1,44,32,−2
Oc1ccc(/N=N/c2nc3ccccc3s2)cc1Cl [Dye 7],43,57,25,14,38,55,15,2,36,55,14
CCSc1nnc(N=Nc2ccc(O)c3cccc(NS(C)(=O)=O)c23)s1 [Dye 8],52,27,−1,14,45,12,−35,3,44,12,−37
CS(=O)(=O)Nc1cccc2c(O)ccc(N=Nc3nc4ccccc4s3)c12 [Dye 9],30,27,−1,35,25,12,−30,3,23,12,−32
CS(=O)(=O)Nc1cccc2c(O)ccc(/N=N/c3snc4ccc(S(N)(=O)=O)cc34)c12 [Dye 10],49,−18,−12,15,54,−31,−5,2,52,−31,−5
CCC(=O)Nc1cc(N=Nc2snc3ccc(S(N)(=O)=O)cc23)cc(Cl)c1O [Dye 12],44,−2,−1,30,41,7,−27,3,39,7,−29
NS(=O)(=O)c1ccc2nsc(N=Nc3cc(Cl)c(O)cc3Cl)c2c1 [Dye 13],32,11,−14,17,33,20,−27,2,31,20,−28
COCCOc1ccc(N=NC2C(=O)N(c3ccccc3)N=C2C(N)=O)cc1S(N)(=O)=O (centres unmarked) [Dye 21],79,3,61,10,84,−4,58,1,84,−5,57
CCSc1nnc(/N=N/c2c(C(C)(C)C)nn3nc(C)[nH]c23)s1 [Dye 22],79,2,89,11,77,10,85,2,77,12,85
N#CC(/N=N/c1ccc(S(N)(=O)=O)cc1)C(=O)c1ccccc1 (centres unmarked) [Dye 23],81,−8,41,12,81,−10,53,1,80,−10,53
Cc1nn2nc(C(C)(C)C)c(/N=N/c3cc(Cl)c(S(N)(=O)=O)cc3Cl)c2[nH]1 [Dye 24],81,−2,64,12,78,8,67,2,77,9,68
"CCSc1nsc(/N=N/c2cc(Cl)c(O)c(NC(=O)CC)c2)n1 [Dye 25, reference compound]",41,52,−16,1,41,51,−17,1,40,51,−17
"CCSc1nsc(/N=N/c2cc(Cl)c(O)cc2Cl)n1 [Dye 26, reference compound]",27,51,12,1,28,50,11,1,27,50,11
"CC(=O)Nc1cc(/N=N/c2snc3ccc(S(N)(=O)=O)cc23)c(Cl)c(Cl)c1O [Dye 27, reference compound]",32,8,−29,3,34,10,−31,2,32,10,−31
